The record followed here is the supplement of paper PMC6418307.

The test relates to primary mouse cortical neurons. Briefly: cell health score (luciferase spike-in reads / total reads per well) (fraction); higher = fewer cellular reads, worse cell health / toxicity. Particulars: treatment time 24 h.
The mark [1] stands for this setting: 0.01 µM, sex of neuron culture: Female.
Where [2] appears, read: 0.01 µM, sex of neuron culture: Male.
Where [3] appears, read: 0.1 µM, sex of neuron culture: Female.
The mark [4] stands for this setting: 0.1 µM, sex of neuron culture: Male.
[5] abbreviates: 1 µM, sex of neuron culture: Female.
Where [6] appears, read: 1 µM, sex of neuron culture: Male.
[7] abbreviates: 10 µM, sex of neuron culture: Female.
[8] abbreviates: 10 µM, sex of neuron culture: Male.

Single values of this set are uncertain.

As to `O=C(O)COc1nc(Cl)c(Cl)cc1Cl` [Triclopyr], the cell health score was found to be 0.000573 under setting [1]; 0.00093 under setting [2]; 0.0015 under setting [3]; 0.000894 under setting [4]; 0.000715 under setting [5]; 0.000765 under setting [6]. Further, the cell health score is, setting by setting: under setting [7], 0.00105; under setting [8], 0.000444.

`Oc1cc(Cl)ccc1Oc1ccc(Cl)cc1Cl` [Triclosan] returned a cell health score under setting [1] of 0.000559; a cell health score under setting [2] of 0.000742; a cell health score under setting [3] of 0.000859; a cell health score under setting [4] of 0.00107; a cell health score under setting [5] of 0.0008; a cell health score under setting [6] of 0.000556. Further, the cell health score is, setting by setting: under setting [7], 0.00144; under setting [8], 0.000498.

Regarding `CO/N=C(/C(=O)OC)c1ccccc1CO/N=C(\C)c1cccc(C(F)(F)F)c1` [Trifloxystrobin], the cell health score was found to be 0.00253 under setting [1]; 0.0134 under setting [2]; 0.00529 under setting [3]; 0.0163 under setting [4]; 0.00665 under setting [5]; 0.014 under setting [6]. Also, the cell health score is, setting by setting: under setting [7], 0.0198; under setting [8], 0.0357.

With `COc1cc(OC)nc(NC(=O)NS(=O)(=O)c2ncccc2OCC(F)(F)F)n1` [Trifloxysulfuron-sodium], the cell health score runs as follows: under setting [1], 0.000566; under setting [2], 0.000733; under setting [3], 0.00126; under setting [4], 0.000954; under setting [5], 0.0011; under setting [6], 0.000761. The cell health score by setting is: under setting [7], 0.00115; under setting [8], 0.000551.

As to `CCCOC/C(=N\c1ccc(Cl)cc1C(F)(F)F)n1ccnc1` [Triflumizole], the cell health score reads like this: under setting [1], 0.000871; under setting [2], 0.000989; under setting [3], 0.000422; under setting [4], 0.000676; under setting [5], 0.000746; under setting [6], 0.000873. Further, the cell health score is, setting by setting: under setting [7], 0.00104; under setting [8], 0.000611.

In the case of `CCCN(CCC)c1c([N+](=O)[O-])cc(C(F)(F)F)cc1[N+](=O)[O-]` [Trifluralin], the cell health score turned out to be 0.00053 under setting [1]; 0.000677 under setting [2]; 0.00064 under setting [3]; 0.000554 under setting [4]; 0.000764 under setting [5]; 0.000509 under setting [6]. In addition, the cell health score by setting is: under setting [7], 0.000399; under setting [8], 0.000554.

With `[OH-].c1cc[c]([Sn+]([c]2ccccc2)[c]2ccccc2)cc1` [Triphenyltin hydroxide], the cell health score is 0.00264 under setting [1]; 0.00612 under setting [2]; 0.0021 under setting [3]; 0.00348 under setting [4]; 0.0293 under setting [5]; 0.0132 under setting [6]. The compound also displayed a cell health score under setting [7] of 0.226.

For `CC1(C)CC/C(=C\c2ccc(Cl)cc2)C1(O)Cn1cncn1` (stereo not given) [Triticonazole], the cell health score runs as follows: under setting [1], 0.000705; under setting [2], 0.000797; under setting [3], 0.00104; under setting [4], 0.000858; under setting [5], 0.00082; under setting [6], 0.000683. The cell health score worked out at 0.000908 under setting [7] and 0.000908 under setting [8].

As to `NC(=O)c1nc(Nc2ccccc2)sc1NC(=O)C1CCCCC1` [UNC3230], the cell health score runs as follows: under setting [1], 0.000521; under setting [2], 0.00085; under setting [3], 0.000519; under setting [4], 0.000585; under setting [5], 0.000696; under setting [6], 0.000437. Further, the cell health score under setting [7] is 0.00104 and the cell health score under setting [8] was 0.000482.

Consider `Cc1cc(Nc2cc(N3CCN(C)CC3)nc(Sc3ccc(NC(=O)C4CC4)cc3)n2)n[nH]1` [VX680], for which the cell health score turned out to be 0.00074 under setting [1]; 0.000783 under setting [2]; 0.000827 under setting [3]; 0.000547 under setting [4]; 0.000663 under setting [5]; 0.000765 under setting [6]. For the same compound, the cell health score worked out at 0.00105 under setting [7] and 0.000796 under setting [8].

`CCCC(CCC)C(=O)O` [Valproic acid]: the cell health score came to 0.001 under setting [1]; 0.000947 under setting [2]; 0.00132 under setting [3]; 0.00104 under setting [4]; 0.0014 under setting [5]; 0.000692 under setting [6]. Also, the cell health score runs as follows: under setting [7], 0.00109; under setting [8], 0.000641.

As for `C=CC1(C)OC(=O)N(c2cc(Cl)cc(Cl)c2)C1=O` (stereo not given) [Vinclozolin], the cell health score under setting [1] amounted to 0.000557; the cell health score under setting [2] amounted to 0.000782; the cell health score under setting [3] came to 0.000859; the cell health score under setting [4] came out at 0.000771; the cell health score under setting [5] worked out at 0.000849; the cell health score under setting [6] stood at 0.000735. Besides, the cell health score is, setting by setting: under setting [7], 0.00125; under setting [8], 0.000581.

As for `CC[C@]1(O)C[C@H]2CN(CCc3c([nH]c4ccccc34)[C@@](C(=O)OC)(c3cc4c(cc3OC)N(C=O)[C@H]3[C@@](O)(C(=O)OC)[C@H](OC(C)=O)[C@]5(CC)C=CCN6CC[C@]43[C@@H]65)C2)C1` [Vincristine], the cell health score reads like this: under setting [1], 0.0109; under setting [2], 0.0107; under setting [3], 0.0146; under setting [4], 0.0078; under setting [5], 0.00573; under setting [6], 0.00959. The cell health score is 0.00773 under setting [7] and 0.00409 under setting [8].

For the compound `Cc1c(C)c2c(c(C)c1O)CC[C@@](C)(CCC[C@H](C)CCC[C@H](C)CCCC(C)C)O2` [Vitamin E (alpha-tocopherol)], the cell health score is 0.000507 under setting [1]; 0.00061 under setting [2]; 0.00065 under setting [3]; 0.000804 under setting [4]; 0.000801 under setting [5]; 0.000821 under setting [6]. In addition, the cell health score under setting [7] came out at 0.000787 and the cell health score under setting [8] stood at 0.000619.

Regarding `O=C(CCCCCCC(=O)Nc1ccccc1)NO` [Vorinostat (SAHA)], the cell health score came out at 0.000292 under setting [1]; 0.000531 under setting [2]; 0.00062 under setting [3]; 0.000701 under setting [4]; 0.000769 under setting [5]; 0.000933 under setting [6]. The same compound registered a cell health score under setting [7] of 0.000792 and a cell health score under setting [8] of 0.00204.

On to `Oc1nc(-c2ccc(C(F)(F)F)cc2)nc2c1CSCC2` [XAV939], for which the cell health score was determined as 0.000602 under setting [1]; 0.000779 under setting [2]; 0.00161 under setting [3]; 0.0011 under setting [4]; 0.00144 under setting [5]; 0.000899 under setting [6]. The cell health score turned out to be 0.00125 under setting [7] and 0.000535 under setting [8].

Compound `CCC(C)(NC(=O)c1cc(Cl)c(C)c(Cl)c1)C(=O)CCl` (stereo not given) [Zoxamide] displayed a cell health score under setting [1] of 0.000603; a cell health score under setting [2] of 0.00067; a cell health score under setting [3] of 0.000658; a cell health score under setting [4] of 0.00083; a cell health score under setting [5] of 0.000697; a cell health score under setting [6] of 0.000659. Further, the cell health score is, setting by setting: under setting [7], 0.00147; under setting [8], 0.00584.
